# In the supplement of paper PMC10849652:
# The chains behind the UniProt entries cited, without tags or fusion partners. Where a name states a change or a piece, a line headed by the entry shows the natural chain unless it says otherwise.
# UniProt Q96DE0: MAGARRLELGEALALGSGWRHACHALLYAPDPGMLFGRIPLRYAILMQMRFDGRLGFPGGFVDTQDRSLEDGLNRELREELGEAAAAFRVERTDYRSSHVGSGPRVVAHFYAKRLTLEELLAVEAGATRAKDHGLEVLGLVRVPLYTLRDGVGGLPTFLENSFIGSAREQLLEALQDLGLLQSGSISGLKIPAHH
# UniProt Q8IVD9: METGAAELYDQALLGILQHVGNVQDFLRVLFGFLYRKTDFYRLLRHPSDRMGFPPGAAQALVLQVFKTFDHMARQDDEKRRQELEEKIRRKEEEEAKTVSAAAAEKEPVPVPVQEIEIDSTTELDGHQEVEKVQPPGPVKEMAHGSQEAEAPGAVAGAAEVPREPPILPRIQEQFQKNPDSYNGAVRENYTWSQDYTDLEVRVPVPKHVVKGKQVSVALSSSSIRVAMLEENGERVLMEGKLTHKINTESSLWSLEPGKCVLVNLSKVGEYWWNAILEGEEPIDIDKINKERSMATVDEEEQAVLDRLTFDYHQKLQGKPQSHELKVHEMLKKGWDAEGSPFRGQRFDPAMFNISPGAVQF
# UniProt Q99567: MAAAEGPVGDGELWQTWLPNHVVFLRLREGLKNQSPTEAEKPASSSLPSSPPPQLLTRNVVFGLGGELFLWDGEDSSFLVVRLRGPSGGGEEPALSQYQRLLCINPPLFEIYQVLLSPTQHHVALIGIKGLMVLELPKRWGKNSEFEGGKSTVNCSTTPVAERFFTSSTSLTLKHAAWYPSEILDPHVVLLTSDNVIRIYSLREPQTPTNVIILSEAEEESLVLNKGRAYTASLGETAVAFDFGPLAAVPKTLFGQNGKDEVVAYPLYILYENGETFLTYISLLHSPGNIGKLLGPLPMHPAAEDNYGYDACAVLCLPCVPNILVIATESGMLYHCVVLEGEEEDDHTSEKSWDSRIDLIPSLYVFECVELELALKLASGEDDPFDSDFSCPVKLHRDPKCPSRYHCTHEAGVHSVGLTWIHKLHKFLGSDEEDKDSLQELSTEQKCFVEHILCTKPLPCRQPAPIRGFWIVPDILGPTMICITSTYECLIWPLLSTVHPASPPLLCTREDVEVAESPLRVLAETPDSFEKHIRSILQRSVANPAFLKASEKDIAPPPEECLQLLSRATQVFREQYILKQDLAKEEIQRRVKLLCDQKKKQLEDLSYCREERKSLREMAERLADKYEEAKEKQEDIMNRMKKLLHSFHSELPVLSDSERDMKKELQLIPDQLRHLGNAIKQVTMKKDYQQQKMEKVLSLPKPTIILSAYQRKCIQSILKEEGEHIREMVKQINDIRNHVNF
# UniProt Q9NV35: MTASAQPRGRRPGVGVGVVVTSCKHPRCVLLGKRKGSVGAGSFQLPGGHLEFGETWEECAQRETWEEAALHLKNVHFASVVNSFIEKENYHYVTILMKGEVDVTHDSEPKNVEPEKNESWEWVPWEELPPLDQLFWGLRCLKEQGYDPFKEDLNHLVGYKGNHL
# UniProt Q96HP4: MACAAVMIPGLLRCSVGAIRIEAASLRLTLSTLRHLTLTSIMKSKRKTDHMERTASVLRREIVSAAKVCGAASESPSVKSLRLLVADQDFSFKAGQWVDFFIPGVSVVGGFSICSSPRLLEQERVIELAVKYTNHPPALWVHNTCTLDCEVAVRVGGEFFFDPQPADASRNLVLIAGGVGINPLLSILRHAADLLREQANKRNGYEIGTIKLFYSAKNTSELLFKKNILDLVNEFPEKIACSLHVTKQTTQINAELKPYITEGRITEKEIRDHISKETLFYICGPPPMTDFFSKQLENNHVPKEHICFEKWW
# UniProt Q9NZJ9: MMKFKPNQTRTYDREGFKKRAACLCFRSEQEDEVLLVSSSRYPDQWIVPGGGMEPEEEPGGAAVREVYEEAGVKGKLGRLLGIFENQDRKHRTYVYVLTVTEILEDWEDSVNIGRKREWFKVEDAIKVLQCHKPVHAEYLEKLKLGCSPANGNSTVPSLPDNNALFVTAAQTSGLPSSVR
# UniProt Q9BVL2: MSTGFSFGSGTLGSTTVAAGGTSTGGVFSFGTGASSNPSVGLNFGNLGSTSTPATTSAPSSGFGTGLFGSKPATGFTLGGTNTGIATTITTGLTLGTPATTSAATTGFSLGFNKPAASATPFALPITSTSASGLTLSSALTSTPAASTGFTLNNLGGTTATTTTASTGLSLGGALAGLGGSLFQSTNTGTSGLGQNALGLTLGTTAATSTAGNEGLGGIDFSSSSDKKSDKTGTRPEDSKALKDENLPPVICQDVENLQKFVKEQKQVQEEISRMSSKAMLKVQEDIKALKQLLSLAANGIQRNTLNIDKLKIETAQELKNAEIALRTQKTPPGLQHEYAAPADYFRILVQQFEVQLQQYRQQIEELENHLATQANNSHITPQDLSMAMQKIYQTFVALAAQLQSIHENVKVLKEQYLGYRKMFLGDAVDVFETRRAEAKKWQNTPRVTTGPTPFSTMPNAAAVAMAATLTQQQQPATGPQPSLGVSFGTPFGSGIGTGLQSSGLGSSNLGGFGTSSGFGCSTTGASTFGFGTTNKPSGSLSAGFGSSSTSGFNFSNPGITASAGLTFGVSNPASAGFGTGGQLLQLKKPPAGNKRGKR
# UniProt Q96MG7: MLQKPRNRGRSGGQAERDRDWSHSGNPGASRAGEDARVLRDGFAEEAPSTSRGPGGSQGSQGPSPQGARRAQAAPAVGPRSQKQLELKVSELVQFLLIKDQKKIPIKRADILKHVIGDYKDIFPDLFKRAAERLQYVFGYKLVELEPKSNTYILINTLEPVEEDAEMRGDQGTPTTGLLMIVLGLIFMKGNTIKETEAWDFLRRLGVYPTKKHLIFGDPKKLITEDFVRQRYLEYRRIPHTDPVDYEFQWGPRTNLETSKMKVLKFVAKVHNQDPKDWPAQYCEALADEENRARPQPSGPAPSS
# UniProt P52948: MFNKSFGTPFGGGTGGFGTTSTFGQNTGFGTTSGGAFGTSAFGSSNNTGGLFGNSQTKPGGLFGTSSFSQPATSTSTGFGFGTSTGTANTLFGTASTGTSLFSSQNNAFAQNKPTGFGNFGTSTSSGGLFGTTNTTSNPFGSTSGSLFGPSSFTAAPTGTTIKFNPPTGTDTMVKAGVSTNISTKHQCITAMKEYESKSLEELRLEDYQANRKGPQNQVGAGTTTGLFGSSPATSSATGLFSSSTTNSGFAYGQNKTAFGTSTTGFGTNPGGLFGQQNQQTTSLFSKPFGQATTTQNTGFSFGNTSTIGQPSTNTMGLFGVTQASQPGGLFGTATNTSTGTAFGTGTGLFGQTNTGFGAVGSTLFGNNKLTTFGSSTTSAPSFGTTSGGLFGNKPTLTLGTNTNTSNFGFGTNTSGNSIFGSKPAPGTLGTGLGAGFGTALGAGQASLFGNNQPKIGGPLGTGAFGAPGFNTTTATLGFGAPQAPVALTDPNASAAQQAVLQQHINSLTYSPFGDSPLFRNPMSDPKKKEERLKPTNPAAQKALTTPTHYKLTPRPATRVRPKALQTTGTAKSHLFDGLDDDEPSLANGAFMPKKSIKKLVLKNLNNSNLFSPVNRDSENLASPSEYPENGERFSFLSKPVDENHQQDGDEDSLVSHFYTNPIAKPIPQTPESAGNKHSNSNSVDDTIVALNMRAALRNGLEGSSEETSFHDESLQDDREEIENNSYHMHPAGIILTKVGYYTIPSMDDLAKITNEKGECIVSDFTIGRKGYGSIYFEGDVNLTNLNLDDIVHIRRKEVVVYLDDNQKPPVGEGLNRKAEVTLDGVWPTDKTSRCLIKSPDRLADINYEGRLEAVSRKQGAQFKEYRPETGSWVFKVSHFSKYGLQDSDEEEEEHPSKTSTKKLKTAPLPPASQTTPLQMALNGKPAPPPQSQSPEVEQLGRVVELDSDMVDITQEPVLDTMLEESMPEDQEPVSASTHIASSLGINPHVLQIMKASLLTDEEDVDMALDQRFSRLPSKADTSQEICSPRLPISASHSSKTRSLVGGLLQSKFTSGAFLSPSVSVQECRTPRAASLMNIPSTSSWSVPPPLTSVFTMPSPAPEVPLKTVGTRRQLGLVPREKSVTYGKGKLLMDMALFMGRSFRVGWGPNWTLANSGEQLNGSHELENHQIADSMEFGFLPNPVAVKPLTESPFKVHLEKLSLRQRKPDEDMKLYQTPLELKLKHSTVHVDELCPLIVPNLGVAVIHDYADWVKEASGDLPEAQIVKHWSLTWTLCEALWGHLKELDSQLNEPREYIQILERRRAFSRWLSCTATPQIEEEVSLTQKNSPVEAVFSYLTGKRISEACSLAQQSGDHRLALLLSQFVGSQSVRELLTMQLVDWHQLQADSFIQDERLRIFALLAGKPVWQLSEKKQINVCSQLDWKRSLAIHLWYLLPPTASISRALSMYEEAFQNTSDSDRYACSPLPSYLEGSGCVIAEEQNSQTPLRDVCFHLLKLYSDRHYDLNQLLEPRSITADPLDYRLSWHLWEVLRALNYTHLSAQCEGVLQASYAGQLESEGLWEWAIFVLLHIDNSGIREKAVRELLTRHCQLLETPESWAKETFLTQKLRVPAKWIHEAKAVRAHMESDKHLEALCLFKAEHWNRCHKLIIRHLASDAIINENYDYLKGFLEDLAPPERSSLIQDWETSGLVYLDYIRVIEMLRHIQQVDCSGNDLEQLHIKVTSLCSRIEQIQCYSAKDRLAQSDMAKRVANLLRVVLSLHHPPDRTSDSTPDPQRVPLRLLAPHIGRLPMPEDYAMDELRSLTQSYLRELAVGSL
# UniProt Q9Y5Y2: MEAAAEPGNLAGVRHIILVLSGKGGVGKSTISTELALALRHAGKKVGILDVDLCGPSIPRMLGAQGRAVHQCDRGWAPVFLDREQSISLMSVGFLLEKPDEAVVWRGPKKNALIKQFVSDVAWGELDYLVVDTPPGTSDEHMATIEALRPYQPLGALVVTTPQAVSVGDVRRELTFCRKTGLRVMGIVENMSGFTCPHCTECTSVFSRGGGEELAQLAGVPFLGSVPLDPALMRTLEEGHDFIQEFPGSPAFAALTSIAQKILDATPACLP
# UniProt P49757: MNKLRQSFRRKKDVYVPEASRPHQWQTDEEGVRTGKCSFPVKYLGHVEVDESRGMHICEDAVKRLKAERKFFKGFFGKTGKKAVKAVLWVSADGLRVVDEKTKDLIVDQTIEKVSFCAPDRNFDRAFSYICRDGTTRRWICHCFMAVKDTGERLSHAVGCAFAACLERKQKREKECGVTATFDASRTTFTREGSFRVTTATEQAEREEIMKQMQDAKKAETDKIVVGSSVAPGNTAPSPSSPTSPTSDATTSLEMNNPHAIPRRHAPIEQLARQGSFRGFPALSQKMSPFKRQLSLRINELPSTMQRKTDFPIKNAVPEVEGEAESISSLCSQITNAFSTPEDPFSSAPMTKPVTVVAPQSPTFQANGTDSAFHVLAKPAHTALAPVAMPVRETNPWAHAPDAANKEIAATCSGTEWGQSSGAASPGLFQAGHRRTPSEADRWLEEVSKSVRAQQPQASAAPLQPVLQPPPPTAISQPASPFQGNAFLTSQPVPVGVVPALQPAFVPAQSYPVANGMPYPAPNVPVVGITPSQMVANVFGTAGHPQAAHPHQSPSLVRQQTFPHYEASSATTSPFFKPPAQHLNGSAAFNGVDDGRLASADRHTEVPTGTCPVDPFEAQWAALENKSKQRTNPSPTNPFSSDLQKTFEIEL
# UniProt P11940, whole entry, looked up: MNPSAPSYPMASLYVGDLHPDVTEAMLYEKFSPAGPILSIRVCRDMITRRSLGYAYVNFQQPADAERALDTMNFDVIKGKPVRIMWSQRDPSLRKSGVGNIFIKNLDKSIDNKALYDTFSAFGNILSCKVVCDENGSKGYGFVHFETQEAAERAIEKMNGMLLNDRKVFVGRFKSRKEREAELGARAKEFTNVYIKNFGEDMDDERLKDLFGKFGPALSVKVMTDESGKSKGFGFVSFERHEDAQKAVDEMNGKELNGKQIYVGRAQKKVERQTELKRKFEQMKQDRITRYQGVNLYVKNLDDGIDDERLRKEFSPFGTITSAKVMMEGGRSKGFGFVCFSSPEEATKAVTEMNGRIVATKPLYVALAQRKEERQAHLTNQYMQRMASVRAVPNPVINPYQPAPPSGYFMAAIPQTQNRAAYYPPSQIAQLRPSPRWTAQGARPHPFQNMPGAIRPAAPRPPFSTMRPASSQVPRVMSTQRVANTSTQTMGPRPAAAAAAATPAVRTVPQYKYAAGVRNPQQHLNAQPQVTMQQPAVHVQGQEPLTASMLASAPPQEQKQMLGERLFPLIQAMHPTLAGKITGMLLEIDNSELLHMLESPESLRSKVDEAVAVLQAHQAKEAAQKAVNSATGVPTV
# UniProt Q96E22: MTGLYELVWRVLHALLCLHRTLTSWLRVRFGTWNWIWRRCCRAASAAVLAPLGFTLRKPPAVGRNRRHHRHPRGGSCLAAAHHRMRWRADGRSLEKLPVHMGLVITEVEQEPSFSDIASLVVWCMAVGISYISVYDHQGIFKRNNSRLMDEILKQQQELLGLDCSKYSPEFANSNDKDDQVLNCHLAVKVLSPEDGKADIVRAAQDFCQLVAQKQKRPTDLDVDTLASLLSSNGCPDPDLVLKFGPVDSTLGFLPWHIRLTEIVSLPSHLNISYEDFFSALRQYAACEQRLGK
# This is one part of the list.
# How the values were obtained:
# Assay in all cases: log2 fold change, soluble protein after heating vs DMSO (PISA); higher = thermal stabilisation; K562 cells, 10 uM, 30 min; active = over 0.2 and 3.5 SD of the protein, either way, in both replicates (recomputed)
# bafetinib = compound: Cc1ccc(NC(=O)c2ccc(CN3CC[C@H](N(C)C)C3)c(C(F)(F)F)c2)cc1Nc1nccc(-c2cncnc2)n1 [bafetinib]
# Summary of the method: (§1)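 For each measurement, 10 μM compound was applied for 30 min to K562 cells at 2×10^6 cells/mL. Aliquots were heated for 3 min across 48°C-58°C, pooled, and extracted in PBS with 0.5% NP-40 at 4°C; the supernatant after 21,000xg for 90 min was soluble protein. This was quantified by TMTpro 16plex LC-MS/MS with channel sums equalised, and thermal stability was reported relative to control samples from duplicates, on a log2 fold-change scale.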
# [1] = compound: Cc1cccc(CC(=O)N2CCc3c2ccc(-c2cn(C)c4ncnc(N)c24)c3F)n1
# Summary of the method: as §1
# nilotinib = compound: Cc1cn(-c2cc(NC(=O)c3ccc(C)c(Nc4nccc(-c5cccnc5)n4)c3)cc(C(F)(F)F)c2)cn1 [nilotinib]
# Summary of the method: as §1
# [2] = compound: Cc1nc(Nc2n[nH]c3c2CN(C(=O)N[C@H](CN(C)C)c2ccccc2)C3(C)C)c2sccc2n1
# Summary of the method: as §1
# dasatinib = compound: Cc1nc(Nc2ncc(C(=O)Nc3c(C)cccc3Cl)s2)cc(N2CCN(CCO)CC2)n1 [dasatinib]
# Summary of the method: as §1
# [3] = compound: Cc1ncc(-c2ccnc(Nc3ccc(S(C)(=O)=O)cc3)n2)n1C(C)C
# Summary of the method: as §1
# [4] = compound: Cn1cc(-c2ccc3c(c2)CCN3C(=O)Cc2cccc(C(F)(F)F)c2)c2c(N)ncnc21
# Summary of the method: as §1
# [5] = compound: Cn1cc(-c2ccc3nnc(C(F)(F)c4ccc5ncccc5c4)n3n2)cn1
# Summary of the method: as §1
# tipifarnib = compound: Cn1cncc1[C@@](N)(c1ccc(Cl)cc1)c1ccc2c(c1)c(-c1cccc(Cl)c1)cc(=O)n2C [tipifarnib]
# Summary of the method: as §1
# mubritinib = compound: FC(F)(F)c1ccc(/C=C/c2nc(COc3ccc(CCCCn4ccnn4)cc3)co2)cc1 [mubritinib]
# Summary of the method: as §1
# [6] = compound: NC(=O)Nc1cc(-c2cccc(F)c2)sc1C(=O)N[C@H]1CCCNC1
# Summary of the method: as §1
# [7] = compound: NC(=O)c1cnc(N[C@@H]2CCCC[C@@H]2N)nc1Nc1cccc(-n2nccn2)c1
# Summary of the method: as §1
# [8] = compound: NC1(c2ccc(-c3nc4ccn5c(=O)[nH]nc5c4cc3-c3ccccc3)cc2)CCC1
# Summary of the method: as §1
# [9] = compound: NCC(=O)Nc1ccc(-n2nc(C(F)(F)F)cc2-c2ccc3c(ccc4ccccc43)c2)cc1
# Summary of the method: as §1
# entinostat = compound: Nc1ccccc1NC(=O)c1ccc(CNC(=O)OCc2cccnc2)cc1 [entinostat]
# Summary of the method: as §1
# vorinostat = compound: O=C(CCCCCCC(=O)Nc1ccccc1)NO [vorinostat]
# Summary of the method: as §1
# citarinostat = compound: O=C(CCCCCCNC(=O)c1cnc(N(c2ccccc2)c2ccccc2Cl)nc1)NO [citarinostat]
# Summary of the method: as §1
# silmitasertib = compound: O=C(O)c1ccc2c(c1)nc(Nc1cccc(Cl)c1)c1ccncc12 [silmitasertib]
# Summary of the method: as §1
# [10] = compound: O=C1NC(=O)C(c2cnc3ccccn23)=C1c1cn2c3c(cc(F)cc13)CN(C(=O)N1CCCCC1)CC2
# Summary of the method: as §1
# [11] = compound: c1cc(OCCN2CCCCC2)cc(-c2n[nH]c3ccc(-c4nnc[nH]4)cc23)c1
# Summary of the method: as §1
Target,log2 fold change (bafetinib),log2 fold change [1],log2 fold change (nilotinib),log2 fold change [2],log2 fold change (dasatinib),log2 fold change [3],log2 fold change [4],log2 fold change [5],log2 fold change (tipifarnib),log2 fold change (mubritinib),log2 fold change [6],log2 fold change [7],log2 fold change [8],log2 fold change [9],log2 fold change (entinostat),log2 fold change (vorinostat),log2 fold change (citarinostat),log2 fold change (silmitasertib),log2 fold change [10],log2 fold change [11]
OXA1L (UniProt Q15070),inactive: -0.152,inactive: -0.032,inactive: 0.013,inactive: -0.019,inactive: -0.01,inactive: -0.029,inactive: 0.013,inactive: 0.038,inactive: 0.004,inactive: 0.003,inactive: 0.019,inactive: -0.021,inactive: -0.04,inactive: -0.025,inactive: -0.021,inactive: 0.005,inactive: 0.017,inactive: 0.02,inactive: -0.038,inactive: 0.113
NUDT16 (UniProt Q96DE0),inactive: -0.044,inactive: -0.035,inactive: 0,inactive: 0.015,inactive: 0.058,inactive: -0.049,inactive: 0.107,inactive: 0.019,inactive: -0.02,inactive: 0.049,inactive: 0.02,inactive: 0.08,inactive: -0.01,active: 0.205,inactive: 0,inactive: -0.069,inactive: 0.018,inactive: 0.016,inactive: -0.106,inactive: 0.034
NUDCD3 (UniProt Q8IVD9),inactive: -0.047,inactive: 0.024,inactive: -0.128,inactive: -0.121,inactive: -0.078,inactive: 0.02,inactive: -0.02,inactive: -0.003,inactive: -0.089,inactive: 0.067,inactive: 0.044,inactive: -0.038,inactive: -0.146,inactive: -0.068,inactive: 0.011,inactive: 0.08,inactive: 0.017,inactive: 0.05,inactive: -0.028,inactive: -0.072
NUP88 (UniProt Q99567),inactive: 0.013,inactive: 0.126,inactive: -0.116,inactive: -0.015,inactive: -0.11,inactive: -0.106,inactive: -0.109,inactive: -0.103,inactive: -0.075,inactive: -0.004,inactive: -0.058,inactive: 0.027,inactive: -0.027,inactive: -0.031,inactive: 0.035,inactive: 0.103,inactive: 0.025,inactive: 0.141,inactive: 0.057,inactive: -0.038
NUDT15 (UniProt Q9NV35),inactive: -0.033,inactive: -0.094,inactive: 0.005,inactive: 0.014,inactive: -0.038,inactive: -0.03,inactive: 0.119,inactive: -0.013,inactive: 0.023,inactive: 0.083,inactive: -0.065,inactive: 0.022,inactive: -0.051,inactive: -0.002,inactive: -0.016,inactive: 0.063,inactive: 0.015,inactive: -0.033,inactive: -0.049,inactive: 0.007
OXNAD1 (UniProt Q96HP4),inactive: -0.031,inactive: 0,inactive: -0.066,inactive: 0.017,inactive: 0.033,inactive: 0.035,inactive: 0.053,inactive: 0.046,inactive: 0.06,inactive: -0.011,inactive: -0.04,inactive: -0.013,inactive: 0.004,inactive: -0.062,inactive: -0.021,inactive: -0.022,inactive: 0.018,inactive: 0.031,inactive: -0.023,inactive: 0.064
NUDT4 (UniProt Q9NZJ9),inactive: -0.041,inactive: 0.035,inactive: -0.082,inactive: -0.055,inactive: -0.06,inactive: 0.006,inactive: 0.024,inactive: -0.01,inactive: -0.024,inactive: 0.05,inactive: -0.02,inactive: -0.003,inactive: -0.123,inactive: -0.095,inactive: 0.101,inactive: 0.067,inactive: 0.062,inactive: 0.001,inactive: -0.027,inactive: -0.05
NUP58 (UniProt Q9BVL2),inactive: -0.037,inactive: -0.03,inactive: -0.024,inactive: 0.005,inactive: 0.003,inactive: 0.024,inactive: 0.023,inactive: -0.018,inactive: 0.031,inactive: 0.038,inactive: -0.052,inactive: -0.054,inactive: -0.004,inactive: -0.068,inactive: 0.004,inactive: -0.005,inactive: 0.034,inactive: -0.02,inactive: -0.027,inactive: -0.043
NSMCE3 (UniProt Q96MG7),inactive: 0.046,inactive: -0.051,inactive: -0.039,inactive: -0.019,inactive: 0.077,inactive: -0.035,inactive: -0.031,inactive: -0.008,inactive: -0.125,inactive: 0.085,inactive: 0.123,inactive: -0.106,inactive: 0.015,inactive: 0.017,inactive: -0.048,inactive: -0.127,inactive: -0.004,inactive: 0.028,inactive: 0.059,inactive: -0.156
NUP98 (UniProt P52948),inactive: -0.008,inactive: 0.018,inactive: -0.034,inactive: -0.062,inactive: -0.077,inactive: -0.044,inactive: -0.026,inactive: -0.075,inactive: 0.005,inactive: 0,inactive: 0.018,inactive: -0.086,inactive: -0.025,inactive: -0.076,inactive: 0,inactive: 0.052,inactive: 0.028,inactive: 0.072,inactive: 0.001,inactive: -0.073
NUBP2 (UniProt Q9Y5Y2),inactive: -0.019,inactive: -0.075,inactive: -0.127,inactive: -0.049,inactive: -0.155,inactive: -0.061,inactive: 0.088,inactive: -0.001,inactive: 0.02,inactive: -0.041,inactive: -0.064,inactive: 0.054,inactive: -0.117,inactive: 0.026,inactive: 0.019,inactive: 0.057,inactive: 0.007,inactive: -0.03,inactive: 0.001,inactive: -0.012
NUMB (UniProt P49757),inactive: -0.013,inactive: 0.022,inactive: -0.05,inactive: -0.078,inactive: 0.017,inactive: -0.12,inactive: 0.063,inactive: -0.008,inactive: 0.059,inactive: -0.053,inactive: -0.088,inactive: -0.022,inactive: -0.002,inactive: -0.003,inactive: -0.041,inactive: 0.037,inactive: 0.009,inactive: 0.007,inactive: -0.097,inactive: -0.032
NUDT1 (UniProt P36639),inactive: 0.129,inactive: 0.052,inactive: -0.087,inactive: 0.271,inactive: -0.127,inactive: 0.301,inactive: 0.194,inactive: 0.06,inactive: -0.069,inactive: 0.137,inactive: 0.159,inactive: 0.145,active: 1.01,inactive: -0.129,inactive: -0.026,inactive: 0.033,inactive: -0.073,inactive: -0.091,inactive: 0.791,inactive: 0.572
PABPC1 (UniProt P11940),inactive: 0.047,inactive: -0.019,inactive: -0.024,inactive: -0.007,inactive: 0.047,inactive: 0.027,inactive: -0.115,inactive: -0.028,inactive: 0.047,inactive: -0.029,inactive: -0.015,inactive: 0.034,inactive: 0.129,inactive: -0.012,inactive: 0.011,inactive: 0.029,inactive: -0.068,inactive: 0.019,inactive: 0.091,inactive: -0.112
NUS1 (UniProt Q96E22),inactive: 0.004,inactive: -0.032,inactive: 0.013,inactive: 0.061,inactive: 0.019,inactive: -0.003,inactive: 0.024,inactive: -0.031,inactive: 0.016,inactive: -0.005,inactive: 0.021,inactive: -0.215,inactive: -0.013,inactive: -0.053,inactive: -0.03,inactive: -0.008,inactive: -0.017,inactive: 0.097,inactive: -0.066,inactive: -0.011
